Assay results reported in paper PMC10748395.
No constants are given. Whether binding was seen depends on the method and setting. For some assays here: Binding seen in cells or lysates may run through a third protein. For some assays here: Where a sequence is shown, tags or fusion partners need not be part of it. Blank lines part the entries; values can stand above or below the binder they belong to.

Amino acid sequences for entries named in this document (tags omitted). A change or cut given only in a name is not applied to a line headed by its entry.
UniProt Q6ZN28: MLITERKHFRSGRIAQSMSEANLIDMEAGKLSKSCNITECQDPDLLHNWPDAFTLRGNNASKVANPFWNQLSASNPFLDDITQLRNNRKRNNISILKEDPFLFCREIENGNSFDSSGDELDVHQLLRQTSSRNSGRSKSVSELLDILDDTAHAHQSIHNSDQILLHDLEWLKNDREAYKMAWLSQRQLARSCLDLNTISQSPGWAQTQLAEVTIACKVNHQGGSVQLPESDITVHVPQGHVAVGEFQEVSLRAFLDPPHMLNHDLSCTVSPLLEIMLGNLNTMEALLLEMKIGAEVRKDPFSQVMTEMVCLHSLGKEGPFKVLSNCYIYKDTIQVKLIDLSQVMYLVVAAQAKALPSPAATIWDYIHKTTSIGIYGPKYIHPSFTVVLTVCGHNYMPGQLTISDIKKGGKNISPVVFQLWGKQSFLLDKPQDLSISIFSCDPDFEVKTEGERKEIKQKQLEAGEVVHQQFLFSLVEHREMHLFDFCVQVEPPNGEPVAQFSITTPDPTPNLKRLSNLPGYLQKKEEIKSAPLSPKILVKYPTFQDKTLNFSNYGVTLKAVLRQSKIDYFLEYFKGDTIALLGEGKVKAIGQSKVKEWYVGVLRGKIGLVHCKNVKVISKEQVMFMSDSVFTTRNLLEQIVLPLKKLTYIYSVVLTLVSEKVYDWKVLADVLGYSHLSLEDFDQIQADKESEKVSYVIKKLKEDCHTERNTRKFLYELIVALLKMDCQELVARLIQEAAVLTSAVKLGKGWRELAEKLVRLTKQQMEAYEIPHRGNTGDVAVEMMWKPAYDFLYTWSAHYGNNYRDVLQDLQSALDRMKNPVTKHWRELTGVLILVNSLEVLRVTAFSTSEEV

Key:
[1] = biological target: MACC1 deletion mutant lacking the SH3 domain (ΔSH3), yeast two-hybrid fusion (human) (UniProt Q6ZN28); test: two-hybrid; Gal4 system, vectors pGBT9 and pGAD10 or pGAD424, yeast reporter strain Y187, beta-galactosidase filter assay
[2] = biological target: V5-tagged ΔSH3-MACC1 (SW480/ΔSH3 cells) (human) (UniProt Q6ZN28); test: co-IP; lysates of SW480/MACC1 or SW480/ΔSH3 cells immunoprecipitated with V5 or GIPC1 antibodies (IgG and beta-tubulin antibodies as negative controls), Western blot with GIPC1 or SH3BP4 antibody

binding [1]: no binding
B1: GIPC1 (GAIP C-Terminus-Interacting Protein PDZ Domain Containing Family, Member 1), full-length, yeast two-hybrid fusion (protein, UniProt O14908 1-333)
chain: MPLGLGRRKKAPPLVENEEAEPGRGGLGVGEPGPLGGGGSGGPQMGLPPPPPALRPRLVFHTQLAHGSPTGRIEGFTNVKELYGKIAEAFRLPTAEVMFCTLNTHKVDMDKLLGGQIGLEDFIFAHVKGQRKEVEVFKSEDALGLTITDNGAGYAFIKRIKEGSVIDHIHLISVGDMIEAINGQSLLGCRHYEVARLLKELPRGRTFTLKLTEPRKAFDMISQRSAGGRPGSGPQLGTGRGTLRLRSRGPATVEDLPSAFEEKAIEKVDDLLESYMGIRDTELAATMVELGKDKRNPDELAEALDERLGDFAFPDEFVFDVWGAIGDAKVGRY

binding [2]: no binding
B2: GIPC1 in colorectal cancer cell lysates (SW620, SW480) (protein, UniProt O14908 1-333)
chain: B1 chain
